Reference: PubChem BioAssay AID248 (DTP/NCI, 2004)
The list shows only some results of the screen, not a fair sample: its compounds were picked by chemical class. Not every dose and run of a compound is shown. T/C: endpoint of the treated group in % of that of the vehicle group. For survival time, this PubChem deposit counts one and a half times the control or more as active, and values a quarter to a half above the control carry no call in these data; other NCI protocols may use other cut-offs. Some entries show no survivor count and are marked so; the dose need not have been tolerated. Schedule codes are those of the source, read here as Q, the interval in days (D) or hours (H), X, the number of doses. Some entries were tested several times; the results are listed from low to high. Some schedule codes hold Z or #, which are not explained here.

System: L1210 leukemia ip in BDF1 mice, survival T/C
Test: NCI In Vivo Anticancer Drug Screen. Data for tumor model L1210 Leukemia (intraperitoneal) in B6D2F1 (BDF1) mice
Conditions: T/C endpoint: mean survival time, higher T/C = longer survival
[1] = dose: 100.0 mg/kg/injection, schedule: Q01DX001 (ip), vehicle: saline

For `CCCC(O)C#CCN(CCCl)CCCl` (configuration not stated), the T/C (dose: 2.0 mg/kg/injection, schedule: Q01DX009 (ip), vehicle: saline) was 112 % of control [survivor count not shown], the T/C (dose: 2.5 mg/kg/injection, schedule: Q01DX009 (ip), vehicle: saline) was 110 % of control [survivor count not shown] and the T/C (dose: 3.0 mg/kg/injection, schedule: Q01DX009 (ip), vehicle: saline) was 120 % of control [survivor count not shown]. For the same compound, the T/C (dose: 3.7 mg/kg/injection, schedule: Q01DX009 (ip), vehicle: saline) was 108 % of control [survivor count not shown], the T/C (dose: 5.0 mg/kg/injection, schedule: Q01DX009 (ip), vehicle: saline) was 112 % of control [survivor count not shown] and the T/C (dose: 5.6 mg/kg/injection, schedule: Q01DX009 (ip), vehicle: saline) was 110 % of control [survivor count not shown]. The T/C (dose: 8.0 mg/kg/injection, schedule: Q01DX009 (ip), vehicle: saline) was 137 [survivor count not shown] and 139 % of control [survivor count not shown], the T/C (dose: 8.5 mg/kg/injection, schedule: Q01DX001 (ip), vehicle: saline) was 117 % of control [survivor count not shown] and the T/C (dose: 8.5 mg/kg/injection, schedule: Q01DX009 (ip), vehicle: saline) was 132 [survivor count not shown] and 134 % of control [survivor count not shown]. The T/C (dose: 13.0 mg/kg/injection, schedule: Q01DX001 (ip), vehicle: saline) was 111 % of control [survivor count not shown], the T/C (dose: 13.0 mg/kg/injection, schedule: Q01DX009 (ip), vehicle: saline) was 137 [survivor count not shown] and 138 % of control [survivor count not shown] and the T/C (dose: 15.0 mg/kg/injection, schedule: Q01DX001 (ip), vehicle: saline) was 124 % of control [survivor count not shown]. The T/C (dose: 20.0 mg/kg/injection, schedule: Q01DX001 (ip), vehicle: saline) was 121 % of control [survivor count not shown], the T/C (dose: 20.0 mg/kg/injection, schedule: Q01DX009 (ip), vehicle: saline) was 142 % of control [survivor count not shown] and the T/C (dose: 30.0 mg/kg/injection, schedule: Q01DX001 (ip), vehicle: saline) was 132 [survivor count not shown], 140 [survivor count not shown], 141 % of control [survivor count not shown]. For the same compound, the T/C (dose: 45.0 mg/kg/injection, schedule: Q01DX001 (ip), vehicle: saline) was 144 % of control [survivor count not shown], the T/C (dose: 60.0 mg/kg/injection, schedule: Q01DX001 (ip), vehicle: saline) was 114 % of control [survivor count not shown] and the T/C (dose: 67.0 mg/kg/injection, schedule: Q01DX001 (ip), vehicle: saline) was 139 % of control [survivor count not shown]. For the same compound, the T/C (dose: 75.0 mg/kg/injection, schedule: Q01DX001 (sc), vehicle: saline) was 139 % of control [survivor count not shown].
`NNP(=S)(NN)c1ccccc1` was tested, and the T/C (dose: 100.0 mg/kg/injection, schedule: Q04DX002 (ip), vehicle: Klucel (hydroxypropylcellulose) (HPC)) was 107 [survivor count not shown] and 124 % of control [survivor count not shown], the T/C (dose: 200.0 mg/kg/injection, schedule: Q04DX002 (ip), vehicle: Klucel (hydroxypropylcellulose) (HPC)) was 113 [survivor count not shown] and 118 % of control [survivor count not shown] and the T/C (dose: 400.0 mg/kg/injection, schedule: Q04DX002 (ip), vehicle: Klucel (hydroxypropylcellulose) (HPC)) was 129 % of control [survivor count not shown].
For `NCCCOP(=O)(O)N(CCCl)CCCl`, the T/C (dose: 25.0 mg/kg/injection, schedule: Q01DX009 (ip), vehicle: saline with Tween-80) was 95 % of control [survivor count not shown], the T/C (dose: 50.0 mg/kg/injection, schedule: Q01DX009 (ip), vehicle: saline with Tween-80) was 106 % of control [survivor count not shown] and the T/C (dose: 100.0 mg/kg/injection, schedule: Q01DX009 (ip), vehicle: saline with Tween-80) was 110 % of control [survivor count not shown]. For the same compound, the T/C (dose: 200.0 mg/kg/injection, schedule: Q01DX009 (ip), vehicle: saline with Tween-80) was 104 [survivor count not shown] and 125 % of control [survivor count not shown], the T/C (dose: 300.0 mg/kg/injection, schedule: Q01DX009 (ip), vehicle: saline with Tween-80) was 146 % of control [survivor count not shown] and the T/C (dose: 400.0 mg/kg/injection, schedule: Q01DX009 (ip), vehicle: saline with Tween-80) was 126 [survivor count not shown] and 138 % of control [survivor count not shown]. The T/C (dose: 500.0 mg/kg/injection, schedule: Q01DX009 (ip), vehicle: saline with Tween-80) was 134 % of control [survivor count not shown].
With `S=P(Cl)(Cl)N(CCCl)CCCl` the T/C (dose: 6.25 mg/kg/injection, schedule: Q04DX003 (ip), vehicle: saline with Tween-80) was 97 % of control [survivor count not shown], the T/C (dose: 12.5 mg/kg/injection, schedule: Q04DX003 (ip), vehicle: saline with Tween-80) was 97 % of control [survivor count not shown] and the T/C (dose: 25.0 mg/kg/injection, schedule: Q04DX003 (ip), vehicle: saline with Tween-80) was 92 % of control [survivor count not shown]. For the same compound, the T/C (dose: 50.0 mg/kg/injection, schedule: Q01DX001 (ip), vehicle: saline) was 112 % of control [survivor count not shown], the T/C [1] was 112 % of control [survivor count not shown] and the T/C (dose: 200.0 mg/kg/injection, schedule: Q01DX001 (ip), vehicle: saline) was 118 % of control [survivor count not shown].
`CCCCOc1ccccc1N(CCCl)CCCl` was tested, and the T/C (dose: 9.5 mg/kg/injection, schedule: Q01DX Z (ip), vehicle: methylcellulose (MC)) was 99 % of control [survivor count not shown], the T/C (dose: 14.4 mg/kg/injection, schedule: Q01DX Z (ip), vehicle: methylcellulose (MC)) was 97 % of control [survivor count not shown] and the T/C (dose: 21.7 mg/kg/injection, schedule: Q01DX Z (ip), vehicle: methylcellulose (MC)) was 95 % of control [survivor count not shown]. For the same compound, the T/C (dose: 32.1 mg/kg/injection, schedule: Q01DX Z (ip), vehicle: methylcellulose (MC)) was 102 % of control [survivor count not shown].
With `O=c1cnn(CN(CCCl)CCCl)c(=O)[nH]1` the T/C (dose: 0.37 mg/kg/injection, schedule: Q04DX002 (ip), vehicle: saline) was 152 % of control [survivor count not shown], the T/C (dose: 0.75 mg/kg/injection, schedule: Q04DX002 (ip), vehicle: saline) was 134 % of control [survivor count not shown] and the T/C (dose: 1.5 mg/kg/injection, schedule: Q04DX002 (ip), vehicle: saline) was 160 % of control [survivor count not shown]. For the same compound, the T/C (dose: 3.1 mg/kg/injection, schedule: Q04DX002 (ip), vehicle: saline) was 100 % of control [survivor count not shown].
`CCOC(=O)C[N+](C)(CCCl)CCCl` was tested, and the T/C (dose: 0.62 mg/kg/injection, schedule: Q01DX015 (ip), vehicle: saline) was 114 % of control [survivor count not shown], the T/C (dose: 0.93 mg/kg/injection, schedule: Q01DX015 (ip), vehicle: saline) was 120 % of control [survivor count not shown] and the T/C (dose: 1.4 mg/kg/injection, schedule: Q01DX015 (ip), vehicle: saline) was 118 [survivor count not shown] and 137 % of control [survivor count not shown]. The T/C (dose: 2.1 mg/kg/injection, schedule: Q01DX015 (ip), vehicle: saline) was 145 % of control [survivor count not shown], the T/C (dose: 3.1 mg/kg/injection, schedule: Q01DX015 (ip), vehicle: saline) was 156 % of control [survivor count not shown] and the T/C (dose: 4.7 mg/kg/injection, schedule: Q01DX015 (ip), vehicle: saline) was 135 [survivor count not shown] and 161 % of control [survivor count not shown]. For the same compound, the T/C (dose: 7.0 mg/kg/injection, schedule: Q01DX015 (ip), vehicle: saline) was 144 % of control [survivor count not shown], the T/C (dose: 10.5 mg/kg/injection, schedule: Q01DX015 (ip), vehicle: saline) was 132 [survivor count not shown] and 139 % of control [survivor count not shown] and the T/C (dose: 18.0 mg/kg/injection, schedule: Q01DX015 (ip), vehicle: saline) was 154 % of control [survivor count not shown]. The T/C (dose: 30.0 mg/kg/injection, schedule: Q01DX015 (ip), vehicle: saline) was 172 [survivor count not shown] and 180 % of control [survivor count not shown], the T/C (dose: 44.4 mg/kg/injection, schedule: Q01DX001 (ip), vehicle: saline) was 132 % of control [survivor count not shown] and the T/C (dose: 50.0 mg/kg/injection, schedule: Q01DX015 (ip), vehicle: saline) was 125 [survivor count not shown] and 172 % of control [survivor count not shown]. For the same compound, the T/C (dose: 66.7 mg/kg/injection, schedule: Q01DX001 (ip), vehicle: saline) was 136 % of control [survivor count not shown] and the T/C [1] was 141 % of control [survivor count not shown].
